In article PMC2267068, “Comparative Analysis of Metal Binding Characteristics of Copper Chaperone Proteins, Atx1 and ATOX1” (Bioinorganic Chemistry and Applications, 2004):
No constants are given. Whether binding was seen depends on the method and setting. Some binding calls cover weakened binding; strength is not graded here. For part of these data: Where a sequence is shown, tags or fusion partners need not be part of it.

Key:
Conditions in all cases: remark: other sources report otherwise
[1] = target: T1, ATOX1 (human copper chaperone), wild type (human), O00244; assay: SEC; Bio-Gel P-10 column; 1 mM ATOX1 + 2 mM Cu(II) + 3 mM DTT; first peak at the void volume, second peak at fraction 35-36; both purified
T1 chain: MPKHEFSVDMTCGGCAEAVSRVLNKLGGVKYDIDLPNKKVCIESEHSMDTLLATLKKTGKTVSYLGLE

[2] = target: T1, ATOX1 (human copper chaperone), wild …; assay: SDS-PAGE; 16% SDS-PAGE without or with 300 mM 2-mercaptoethanol in the sample buffer; 0.3 mM protein untreated, reduced (+DTT 3:1) or 1:1 metal/protein + DTT; the paper calls the experiment inconclusive as to the effects of the metals; both purified
[3] = target: T2, Atx1 (yeast copper chaperone) (yeast (Saccharomyces cerevisiae)), P38636; assay: as above
T2 chain: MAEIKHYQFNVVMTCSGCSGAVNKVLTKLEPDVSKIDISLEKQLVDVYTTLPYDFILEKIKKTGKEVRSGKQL

B1: ATOX1 (human copper chaperone), wild type, O00244 1-68 (natural protein)
chain: MPKHEFSVDMTCGGCAEAVSRVLNKLGGVKYDIDLPNKKVCIESEHSMDTLLATLKKTGKTVSYLGLE
For B1, the binding [1] was “binds” and the binding [2] was “binds”.

B2: Atx1 (yeast copper chaperone), P38636 1-73 (natural protein)
chain: MAEIKHYQFNVVMTCSGCSGAVNKVLTKLEPDVSKIDISLEKQLVDVYTTLPYDFILEKIKKTGKEVRSGKQL
For B2, the binding [3] was “binds”.
